Where a chain is given by its changes, count along the chain named. In names and notes the source's numbering stands. Results are given in words; binding and its absence hold for the method and conditions named. Binding seen in cells or lysates may run through a third protein. Some binding calls cover weakened binding; strength is not graded here. For some assays here: Tags and fused reporters may be left off the sequences shown.

In assay [1] the target is T1, δ-COP (BiFC fusion) (Arabidopsis thaliana) (UniProt Q93Y22).
T1 sequence: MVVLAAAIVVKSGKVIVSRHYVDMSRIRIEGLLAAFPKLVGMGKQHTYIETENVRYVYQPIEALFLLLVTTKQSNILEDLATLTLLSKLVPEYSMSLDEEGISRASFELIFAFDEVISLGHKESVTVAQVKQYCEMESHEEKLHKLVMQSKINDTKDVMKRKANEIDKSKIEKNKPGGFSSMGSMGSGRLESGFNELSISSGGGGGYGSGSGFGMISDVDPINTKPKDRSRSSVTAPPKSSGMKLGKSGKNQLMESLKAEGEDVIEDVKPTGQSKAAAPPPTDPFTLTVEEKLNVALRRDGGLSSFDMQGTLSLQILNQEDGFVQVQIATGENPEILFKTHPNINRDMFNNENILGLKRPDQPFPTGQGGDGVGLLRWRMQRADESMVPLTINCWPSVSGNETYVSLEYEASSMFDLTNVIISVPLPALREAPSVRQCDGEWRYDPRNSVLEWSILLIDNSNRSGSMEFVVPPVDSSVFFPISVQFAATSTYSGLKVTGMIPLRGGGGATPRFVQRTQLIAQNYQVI
The assay can be described thus: split reporter.

Assay [2] deals with T2, ERH1:Venus-N (Arabidopsis thaliana) (UniProt Q9SH93).
T2 sequence: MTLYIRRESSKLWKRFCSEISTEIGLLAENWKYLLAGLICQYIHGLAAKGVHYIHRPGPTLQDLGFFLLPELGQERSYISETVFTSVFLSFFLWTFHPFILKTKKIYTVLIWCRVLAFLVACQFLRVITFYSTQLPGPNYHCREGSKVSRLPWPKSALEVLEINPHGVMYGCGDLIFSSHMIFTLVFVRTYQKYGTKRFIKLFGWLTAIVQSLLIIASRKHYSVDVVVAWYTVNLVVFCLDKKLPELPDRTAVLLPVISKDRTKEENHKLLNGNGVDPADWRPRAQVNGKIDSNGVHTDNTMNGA
The assay can be described thus: split reporter.

The target in assay [3] is T3, Myc:ERH1 (Arabidopsis thaliana) (UniProt Q9SH93).
T3 sequence: T2 sequence
The assay can be described thus: co-IP.

B1: α1-COP:Venus-C (protein, UniProt Q94A40 1-1216)
chain: MLTKFETKSNRVKGLSFHPKRPWILASLHSGVIQLWDYRMGTLIDRFDEHEGPVRGVHFHNSQPLFVSGGDDYKIKVWNYKNHRCLFTLLGHLDYIRTVQFHHEYPWIVSASDDQTIRIWNWQSRTCVSVLTGHNHYVMCASFHPKEDLVVSASLDQTVRVWDIGALRKKTVSPADDIMRLTQMNSDLFGGVDAIVKYVLEGHDRGVNWAAFHPTLPLIVSGADDRQVKLWRMNETKAWEVDTLRGHMNNVSSVMFHAKQDIIVSNSEDKSIRVWDATKRTGLQTFRREHDRFWILAVHPEMNLLAAGHDSGMIVFKLERERPAFALSGDSLFYAKDRFLRYYEYSTQRDSQVIPIRRPGTPSLNQSPRTLSYSPTENAVLICSDLDGGSYELYIIPKDSVGRSDVVQDAKRGTGGSAVFIARNRFAVLEKSTSQVLVKNLKNEVVKKSPLPIPTDAIFYAGTGNLLCRSEDKVVIFDLQQRLVLGELQTPFVRYVVWSSDMESVALLSKHTIIIASKKLVLQCTLHETIRVKSGAWDDNGVFIYTTLNHIKYCLPNGDSGIIRTLDVPIYITKVSGNTIFCLDRDGKNKAITINATEYIFKLSLLRKRYDHVMSMIKNSQLCGQAMIAYLQQKGFPEVALHFVEDERIRFNLALESGNISVAVASATQINEKDHWYRLGVEALRQGNSGIVEFAYQQTKNFERLSFLYLITGNLDKLSKLMKIAEVKNNVMGQFHNALYLGDVKERVKILENAGHLPLAYITASVHGLNDIAERLATELGDNVPSLPEGKTPSLLMPPTPIMCGGDWPLLRVMKGIFEGGLESADRGGTVDEEDVEGDWGEELDINVDGMENRDIEDILAAAEAGEEENDEEGGWGLEDLVLPPELDTPKASANARSSVFVTPPQGMPVSQSWSQKSSLAAEQAAAGSFDTAMRLLHRQLGIKNFTPLKSMFLDLFNGSHSYLRAFSSCPVVPLAIERGWSESSSPNVRSPPALVYDFSQLDEKLKSGYKATTTGKFTEALRLFLSILHTIPLVVVETRREVDEVKELIVIVKEYVLGLQMELKRREMKDDPVRQQELAAYFTHCNLQTPHLRLALLSAMGVCYKAKNLATASNFARRLLETSPVDSQAKMARQVVQAAERNMTDETKLNYDFRNPFVVCGSTYVPIYRGQKDVSCPYCTARFVPNQEGNICTVCDLAVIGADASGLLCSPSQVR
Regarding B1, the binding entry in assay [1] and in assay [2] was “binds” throughout.

B2: GFP:α1-COP^G486D (protein, UniProt Q94A40 1-1216)
chain: B1 chain with G486D
B2: the binding entry in assay [3] is given as “no binding”.

B3: GFP:α1-COP (protein, UniProt Q94A40 1-1216)
chain: B1 chain
For the molecule B3, the binding entry in assay [3] is “binds”.

B4: α1-COP^G486D:cVenus (protein, UniProt Q94A40 1-1216)
chain: B1 chain with G486D
For the molecule B4, the binding entry in assay [2] is given as “no binding”.

Source of the values: paper doi:10.1101/2021.03.22.436362.
